Assay results as given in publication PMC7819943, “Rice protein-binding microarrays: a tool to detect cis-acting elements near promoter regions in rice”.
The other results are listed elsewhere or left out.

These sequences were tested against T1, OsSMF1 (Oryza sativa, UniProt Q6ZLB0 1-436) (assay: protein-binding microarray (RPBM); PBS, 2% BSA, 51.3 ng/ul salmon testes DNA, 50 uM zinc acetate, 200 nM TF, 25 C, 1 h; high values mean tight binding). Conditions: protein: recombinant; tags: N-terminal polyhistidine and DsRed monomer fusion (pET32a); chain copies: 2; label: CyDye5-dUTP incorporated in the synthesized complementary strand; 3' TTTTT single-stranded linker to array surface; dsDNA, one strand shown.
T1 sequence: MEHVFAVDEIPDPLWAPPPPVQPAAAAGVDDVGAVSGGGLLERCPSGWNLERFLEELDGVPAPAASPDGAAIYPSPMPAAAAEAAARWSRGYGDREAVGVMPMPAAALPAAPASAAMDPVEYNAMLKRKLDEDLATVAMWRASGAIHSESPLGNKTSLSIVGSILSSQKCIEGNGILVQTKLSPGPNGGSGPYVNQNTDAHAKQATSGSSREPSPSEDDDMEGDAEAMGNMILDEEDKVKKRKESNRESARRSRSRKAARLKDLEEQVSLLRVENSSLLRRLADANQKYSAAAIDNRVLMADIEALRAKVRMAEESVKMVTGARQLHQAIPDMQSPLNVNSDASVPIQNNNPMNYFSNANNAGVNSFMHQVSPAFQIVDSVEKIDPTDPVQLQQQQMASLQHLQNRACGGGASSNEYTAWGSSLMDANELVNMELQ
Method in brief: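 Polyhistidine-tagged DsRed fusions of transcription factors, joined at the N-terminus, were expressed in E. coli BL21-CodonPlus and isolated on Ni–NTA. They were incubated at 200 nM for 1 h at 25 °C on a custom Agilent array, double-stranded and BSA-blocked, in PBS with 2% BSA, salmon testes DNA and 50 µM zinc acetate. The binding signal is per-feature fluorescence intensity (arbitrary units) read on an Axon 4000B scanner after washing.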

Question: For “AGGTTCTGCGGCGTCAGGCTGGTCATGTACTTGCCGGGGACGGAGTCACCTAGTGCAG”, which binding signal is on record?
Answer: 3270 fluorescence intensity (a.u.)

Question: Which binding signal does the source give for “ATAGAATGTTCTTAAGAACCTCAGAACAGTTATAAGAAACCGGAGTCACCTAGTGCAG” here?
Answer: 17600 fluorescence intensity (a.u.)

Question: How did the binding signal turn out when “GCACACATACACATACTGACAATGATGAGTTGATGACACACGGAGTCACCTAGTGCAG” was run?
Answer: 3520 fluorescence intensity (a.u.)

Question: For “CGGCCCATGAGTCCATTGATGACCTGTTCTTTCCTTCCTCCGGAGTCACCTAGTGCAG”, which binding signal is on record?
Answer: 5460 fluorescence intensity (a.u.)

Question: With “CATAGATCATTGTATCACATTTTCGATTGCGTGTCAAACACGGAGTCACCTAGTGCAG” as the sequence, how does the binding signal read?
Answer: 6840 fluorescence intensity (a.u.)

Question: How did the binding signal turn out when “TAGGATTAATAATCGATTTATTTTGCTGACATCTTGGGAGCGGAGTCACCTAGTGCAG” was run?
Answer: 4260 fluorescence intensity (a.u.)

Question: Which binding signal does the source give for “AAACACCGTCGCTGTCAGCCTGTGTGTCACGTTTGGCTATCGGAGTCACCTAGTGCAG” here?
Answer: 3900 fluorescence intensity (a.u.)

Question: “GGTACCGAAAATGACGCGCCTCGCCAGCTGTATGCCACCGCGGAGTCACCTAGTGCAG” was tested. Which binding signal did it give?
Answer: 5110 fluorescence intensity (a.u.)

Question: “GGTCTTTAGGTTAAGGGTGGTTGTGCCTTATATTTTGGAACGGAGTCACCTAGTGCAG” was tested. Which binding signal did it give?
Answer: 3670 fluorescence intensity (a.u.)

Question: “GACGAATTTATTTATATAGTGTGTCACATGGGGTGTTCGGCGGAGTCACCTAGTGCAG” was tested. Which binding signal did it give?
Answer: 4480 fluorescence intensity (a.u.)

Question: For “TAGCATATTTGGCAATGTTTGCCTCACAGATGCCTCACAACGGAGTCACCTAGTGCAG”, which binding signal is on record?
Answer: 31200 fluorescence intensity (a.u.)

Question: Which binding signal does the source give for “CGAGTCGGAGGACTACTCGTCGTGCGCCGGCGAGTCAGACCGGAGTCACCTAGTGCAG” here?
Answer: 4080 fluorescence intensity (a.u.)

Question: Which binding signal does the source give for “GCACAAGTTGCAAATTACTACTACTAGTTCGCCAGTCACACGGAGTCACCTAGTGCAG” here?
Answer: 7790 fluorescence intensity (a.u.)

Question: Which binding signal does the source give for “TGGCAGCCGCTTCCTCCCGTCTATATATGCTAAGTCATCACGGAGTCACCTAGTGCAG” here?
Answer: 5080 fluorescence intensity (a.u.)

Question: “GCTGCGCCACCGCCTTTTCCTCCTCGGCTACGTGTGCAACCGGAGTCACCTAGTGCAG” was tested. Which binding signal did it give?
Answer: 4250 fluorescence intensity (a.u.)

Question: How did the binding signal turn out when “AGTCAATTTAAACATGGCCGGCTGTAAAATCAATTTAGTCCGGAGTCACCTAGTGCAG” was run?
Answer: 30400 fluorescence intensity (a.u.)

Question: How did the binding signal turn out when “GCCCAGCGTGCACGGCGCGACGGACTCGCGCGGCACTAGCCGGAGTCACCTAGTGCAG” was run?
Answer: 5790 fluorescence intensity (a.u.)

Question: Which binding signal does the source give for “TAATTCATTCTTAGGTTTTAGTGTACATTGCAAGCTGTAACGGAGTCACCTAGTGCAG” here?
Answer: 26700 fluorescence intensity (a.u.)

Question: How did the binding signal turn out when “CTAACTGGAAGTAAAACGGCTGCTGACAGATTCTAACACACGGAGTCACCTAGTGCAG” was run?
Answer: 3560 fluorescence intensity (a.u.)

Question: “GCTCCATGCATGCCTCCACATCTCCATGACACAAGTCAGACGGAGTCACCTAGTGCAG” was tested. Which binding signal did it give?
Answer: 3200 fluorescence intensity (a.u.)

Question: “GTACTCCTATGAGGCAGGCGAGGCGAGGAGGGAATACATACGGAGTCACCTAGTGCAG” was tested. Which binding signal did it give?
Answer: 38700 fluorescence intensity (a.u.)

Question: How did the binding signal turn out when “CGTTAATTCAGGATGTGTCATATTTTGTCCTACATTAATACGGAGTCACCTAGTGCAG” was run?
Answer: 3270 fluorescence intensity (a.u.)

Question: “GAAGAACCCAAAGCCCAGCCCACCTCAGCATTCATCCCGCCGGAGTCACCTAGTGCAG” was tested. Which binding signal did it give?
Answer: 3800 fluorescence intensity (a.u.)

Question: “GAGAGCAAATGTGCGCTATCGCTTTCCGAAGGCGTAAAGTCGGAGTCACCTAGTGCAG” was tested. Which binding signal did it give?
Answer: 11400 fluorescence intensity (a.u.)

Question: For “CAAGCCTAATGCGGACAGGATGAGTACATTATAATCTCTGCGGAGTCACCTAGTGCAG”, which binding signal is on record?
Answer: 3150 fluorescence intensity (a.u.)

Question: How did the binding signal turn out when “ACCCTCCGACACATTCTTTTGAAGGTGTTCATGTAGATATCGGAGTCACCTAGTGCAG” was run?
Answer: 3410 fluorescence intensity (a.u.)

Question: How did the binding signal turn out when “CCTGTGATCCTTTCCTTACGTATGGTGATCTGCGAATGACCGGAGTCACCTAGTGCAG” was run?
Answer: 29800 fluorescence intensity (a.u.)

Question: “GTCGTAGAGCTCCCCAATCAGGGCTTCCTCACTTGTGCCACGGAGTCACCTAGTGCAG” was tested. Which binding signal did it give?
Answer: 3230 fluorescence intensity (a.u.)

Question: With “GCCGGCGTCGCCGTCGGGGATGCACCTCGGCGCGTCCGTCCGGAGTCACCTAGTGCAG” as the sequence, how does the binding signal read?
Answer: 3550 fluorescence intensity (a.u.)

Question: Which binding signal does the source give for “GGCAGCGGGGAATGAAGGTGGCGGTGATGGACGACGTGGCCGGAGTCACCTAGTGCAG” here?
Answer: 5180 fluorescence intensity (a.u.)

Question: For “TACTCCGAAAGGCACACGTGACACGCCTTTGCCGCCTTTGCGGAGTCACCTAGTGCAG”, which binding signal is on record?
Answer: 7170 fluorescence intensity (a.u.)

Question: Which binding signal does the source give for “GCGGCCCACTAGGCGACGTCCACGTCACCCGAATCCTCTGCGGAGTCACCTAGTGCAG” here?
Answer: 20900 fluorescence intensity (a.u.)

Question: How did the binding signal turn out when “ACCCCAGCCGCCGCCACGTGCCGCATTGATGGTCCCGGCACGGAGTCACCTAGTGCAG” was run?
Answer: 9120 fluorescence intensity (a.u.)

Question: With “GCTTCTAATCTATACGTGTTCTAGCTAAGCTAGCTAGCTACGGAGTCACCTAGTGCAG” as the sequence, how does the binding signal read?
Answer: 3680 fluorescence intensity (a.u.)

Question: Which binding signal does the source give for “CGCTCGCCACGACTCCTCCCTCTGGCCGACTACTGCCGTCCGGAGTCACCTAGTGCAG” here?
Answer: 3500 fluorescence intensity (a.u.)

Question: For “ACAACTTGGATCATAATAATATGGGGTTTTACGAAATGTACGGAGTCACCTAGTGCAG”, which binding signal is on record?
Answer: 33600 fluorescence intensity (a.u.)

Question: How did the binding signal turn out when “TTCGAAGTATTGAACCATTGACTCATTGAGGTTAGGGAACCGGAGTCACCTAGTGCAG” was run?
Answer: 3480 fluorescence intensity (a.u.)

Question: For “ACAGGCACAGGATGATTCATCAGTACAGTTTCATGCAATCCGGAGTCACCTAGTGCAG”, which binding signal is on record?
Answer: 4900 fluorescence intensity (a.u.)

Question: How did the binding signal turn out when “TGGTATTCAGGTTAATAAACCCAGTCGTCGTGGCACCGACCGGAGTCACCTAGTGCAG” was run?
Answer: 6520 fluorescence intensity (a.u.)

Question: Which binding signal does the source give for “CACAGAAATACGCCTTCGCCTTCCACGATGGATGGCGTAACGGAGTCACCTAGTGCAG” here?
Answer: 3860 fluorescence intensity (a.u.)

Question: “GCGACCCTCCCCTACCCCATCTCACTGACACGTGGGCCCACGGAGTCACCTAGTGCAG” was tested. Which binding signal did it give?
Answer: 11100 fluorescence intensity (a.u.)

Question: Which binding signal does the source give for “AAGCAAGGGTCTCCGTCATGCTCACATTCCTAGGTCCTCCCGGAGTCACCTAGTGCAG” here?
Answer: 16400 fluorescence intensity (a.u.)
